Source: paper PMC7043210, “Differential activation of G protein‐mediated signaling by synthetic cannabinoid receptor agonists” (Pharmacology Research & Perspectives, 2020)

Chains of the proteins cited; added tags and fusions are not shown.
UniProt P21554, whole entry: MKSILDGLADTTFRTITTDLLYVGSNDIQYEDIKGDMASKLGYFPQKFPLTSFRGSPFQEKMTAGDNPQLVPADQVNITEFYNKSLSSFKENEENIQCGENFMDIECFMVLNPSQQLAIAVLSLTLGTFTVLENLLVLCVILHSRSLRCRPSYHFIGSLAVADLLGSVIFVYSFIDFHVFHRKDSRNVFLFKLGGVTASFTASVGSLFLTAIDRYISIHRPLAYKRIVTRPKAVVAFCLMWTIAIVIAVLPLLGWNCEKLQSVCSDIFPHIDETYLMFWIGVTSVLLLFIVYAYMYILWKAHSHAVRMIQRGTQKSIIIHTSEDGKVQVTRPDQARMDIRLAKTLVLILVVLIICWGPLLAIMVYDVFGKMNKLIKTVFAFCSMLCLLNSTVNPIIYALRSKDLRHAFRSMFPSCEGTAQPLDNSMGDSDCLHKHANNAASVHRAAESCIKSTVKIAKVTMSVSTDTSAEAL

Target: human CB1 receptor (Homo sapiens, UniProt P21554)
Assay: Inhibition of FSK-induced cAMP accumulation (Gαi/o, non-PTX treated), CAMYEL BRET biosensor, HEK-CB1 cells
Type: cell-based
Conditions: ratio of G s (+PTX) EC50 to G i (−PTX) EC50; three parameter fit

Q: Which “G i (−PTX) selectivity” value does the source give for CC(C)C(NC(=O)c1nn(Cc2ccc(F)cc2)c2ccccc12)C(N)=O (stereo not shown) here?
A: roughly 300 and 290

The source holds more than one record for some entries. This is not the full list of results. There may be further records. The records of an entry do not match, cause unknown; they may come from other doses, times, organisms or constructs than stated.
